According to patent US20140086924A1:
Results are given in words; binding and its absence hold for the method and conditions named. For part of these data: Binding seen in cells or lysates may run through a third protein. Some results given as binding are weak or reduced against the parent protein; the word gives no strength.

Legend:
[1] = target: full-length human, wild type Survivin (human) (UniProt O15392); assay: anti-FLAG co-immunoprecipitation from transfected HeLa cells, Western blot
[2] = target: GST-Hsp90 (amino acids 1-732) (human) (UniProt P07900); assay: pull-down of 35S in vitro translated XIAP BIR1 with GST-Hsp90, autoradiography
[3] = target: GST-Hsp90 (amino acids 1-732) (human) (UniProt P07900); assay: GST pull-down
[4] = target: GST-Hsp90 (amino acids 1-732) (human) (UniProt P07900); assay: GST-Hsp90 pull-down of 35S in vitro translated protein, autoradiography
[5] = target: GST-Hsp90 (amino acids 1-732) (human) (UniProt P07900); assay: in vitro GST pull-down
[6] = target: GST-Hsp90 (amino acids 1-732) (human) (UniProt P07900); assay: 35S in vitro translated protein, Sepharose-GST-Hsp90 pull-down, autoradiography
[7] = target: GST-Hsp90 (amino acids 1-732) (human) (UniProt P07900); assay: pull-down of 35S in vitro translated protein with Sepharose-GST-Hsp90, autoradiography
[8] = target: GST-Hsp90 (amino acids 1-732) (human) (UniProt P07900); assay: pull-down of 35S in vitro translated XIAP with GST-Hsp90, autoradiography
[9] = target: full-length human, wild type Survivin (human) (UniProt O15392); assay: in vitro pull-down, immunoblot
[10] = target: GST-N-Hsp90 (amino acids 1-272 of SEQ ID NO:21) (human); assay: in vitro pull-down of r-Survivin (30, 100, 300 ng) with GST-N-Hsp90, Western blot for Survivin
[11] = target: FLAG-Hsp90 N domain (amino acids 1-272 of SEQ ID NO:21) (human); assay: anti-FLAG co-immunoprecipitation, immunoblot
[12] = target: GST-N-Hsp90 (amino acids 1-272 of SEQ ID NO:21) (human); assay: in vitro pull-down with GST-N-Hsp90, Western blot
[13] = target: GST-Hsp90 (amino acids 1-732) (human) (UniProt P07900); assay: in vitro pull-down of r-Survivin (30, 100, 300 ng) with Sepharose-GST-Hsp90, Western blot for Survivin
[14] = target: GST-N-Hsp90 (amino acids 1-272 of SEQ ID NO:21) (human); assay: pull-down of r-Survivin with GST-Hsp90 N, Western blot for Survivin
[15] = target: GST-Hsp90 (amino acids 1-732) (human) (UniProt P07900); assay: in vitro pull-down with Sepharose-GST-Hsp90, Western blot
[16] = target: GST-Hsp90 (amino acids 1-732) (human) (UniProt P07900); assay: pull-down of r-Survivin with GST-Hsp90, Western blot for Survivin
[17] = target: T1, Survivin Ile74-Leu87 peptide (human); assay: affinity chromatography on immobilized peptide, immunoblot
T1 sequence (peptide): IDDHKKHSSGCAFL

[18] = target: T1, Survivin Ile74-Leu87 peptide (human); assay: affinity chromatography of Raji cell extracts on peptide coupled to Sulfolink gel, Western blot

Measured: binding

FLAG-Hsp90 N domain (amino acids 1-272 of SEQ ID NO:21) (from UniProt O02705 1-273)
binds: [1]

XIAP BIR1 fragment (Met 1 to Ser 123) (from UniProt P98170 1-123)
binds: [2] | [3] | [4]

truncated form of XIAP containing only the three BIR domains, residues 1-292 (from UniProt P98170 1-292)
binds: [5] | [6] | [7]

cIAP2 (from UniProt Q13489 1-604)
binds: [5] | [6] | [7]

XIAP (full length) (from UniProt P98170 1-497)
binds: [8] | [5] | [6] | [4] | [7]

GST-N-Hsp90 (amino acids 1-272 of SEQ ID NO:21) (from UniProt O02705 1-273)
binds: [9]

full-length human, wild type Survivin (from UniProt O15392 1-142)
binds: [10] | [11] | [6] | [12] | [13] | [14] | [15] | [16] | [7]

full length Hsp90alpha (from UniProt P07900 1-732)
binds: [17] | [18]
